Source: the supplement of paper PMC10849652
Some of the results follow.

Amino acid sequences for entries named in this document (tags omitted). A change or cut given only in a name is not applied to a line headed by its entry.
UniProt P10768: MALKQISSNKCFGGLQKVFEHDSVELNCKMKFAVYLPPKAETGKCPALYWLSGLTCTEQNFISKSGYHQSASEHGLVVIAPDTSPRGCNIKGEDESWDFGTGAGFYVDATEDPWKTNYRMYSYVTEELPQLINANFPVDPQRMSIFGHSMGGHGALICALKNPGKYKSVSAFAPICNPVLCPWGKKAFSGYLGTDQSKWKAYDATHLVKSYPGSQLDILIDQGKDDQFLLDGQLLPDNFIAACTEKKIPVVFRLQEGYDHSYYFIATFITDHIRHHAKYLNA
UniProt Q5HYJ3: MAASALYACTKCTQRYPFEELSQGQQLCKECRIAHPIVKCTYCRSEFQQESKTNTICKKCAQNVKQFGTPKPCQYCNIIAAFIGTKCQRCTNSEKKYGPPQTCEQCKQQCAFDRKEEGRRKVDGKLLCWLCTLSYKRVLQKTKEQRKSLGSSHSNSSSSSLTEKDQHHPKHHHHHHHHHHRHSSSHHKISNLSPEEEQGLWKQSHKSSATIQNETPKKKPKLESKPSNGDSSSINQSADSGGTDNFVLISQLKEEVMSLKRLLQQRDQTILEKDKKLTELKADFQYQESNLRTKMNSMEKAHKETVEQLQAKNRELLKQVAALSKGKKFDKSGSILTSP
UniProt Q9NVQ4: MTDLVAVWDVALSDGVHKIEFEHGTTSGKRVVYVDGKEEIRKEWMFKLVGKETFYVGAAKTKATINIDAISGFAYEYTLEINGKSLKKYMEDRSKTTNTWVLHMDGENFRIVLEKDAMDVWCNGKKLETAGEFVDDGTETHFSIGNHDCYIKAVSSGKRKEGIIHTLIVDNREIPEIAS
UniProt Q14320: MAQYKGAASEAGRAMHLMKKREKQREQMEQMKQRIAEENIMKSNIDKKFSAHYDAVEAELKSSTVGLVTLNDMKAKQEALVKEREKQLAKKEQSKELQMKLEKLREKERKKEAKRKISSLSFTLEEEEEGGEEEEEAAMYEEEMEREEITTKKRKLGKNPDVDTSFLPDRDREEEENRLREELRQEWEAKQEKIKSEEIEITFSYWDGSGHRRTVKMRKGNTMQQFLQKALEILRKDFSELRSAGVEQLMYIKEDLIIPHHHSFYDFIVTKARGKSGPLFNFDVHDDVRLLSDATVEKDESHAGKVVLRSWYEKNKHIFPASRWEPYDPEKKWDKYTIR
UniProt Q8N8J7: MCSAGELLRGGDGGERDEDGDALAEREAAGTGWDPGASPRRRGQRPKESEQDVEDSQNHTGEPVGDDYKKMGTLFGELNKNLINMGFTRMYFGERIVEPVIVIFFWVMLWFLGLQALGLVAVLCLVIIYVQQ
UniProt P38117: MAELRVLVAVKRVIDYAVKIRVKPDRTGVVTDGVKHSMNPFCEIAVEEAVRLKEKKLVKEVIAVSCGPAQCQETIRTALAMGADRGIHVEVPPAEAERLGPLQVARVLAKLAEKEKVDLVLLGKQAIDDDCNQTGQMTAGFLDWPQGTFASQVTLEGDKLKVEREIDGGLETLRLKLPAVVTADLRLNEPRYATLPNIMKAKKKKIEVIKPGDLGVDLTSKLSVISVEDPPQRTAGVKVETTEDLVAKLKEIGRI
UniProt O75477: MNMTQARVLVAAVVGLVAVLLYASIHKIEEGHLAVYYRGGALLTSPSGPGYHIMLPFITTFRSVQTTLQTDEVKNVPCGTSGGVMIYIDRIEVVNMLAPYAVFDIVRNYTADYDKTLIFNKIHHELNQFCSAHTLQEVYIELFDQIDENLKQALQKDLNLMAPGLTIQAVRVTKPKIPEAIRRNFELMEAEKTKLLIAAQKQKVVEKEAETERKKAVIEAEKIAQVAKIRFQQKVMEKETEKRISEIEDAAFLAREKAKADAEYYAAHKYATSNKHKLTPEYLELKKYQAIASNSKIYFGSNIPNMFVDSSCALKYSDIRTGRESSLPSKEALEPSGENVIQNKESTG
UniProt Q86X53: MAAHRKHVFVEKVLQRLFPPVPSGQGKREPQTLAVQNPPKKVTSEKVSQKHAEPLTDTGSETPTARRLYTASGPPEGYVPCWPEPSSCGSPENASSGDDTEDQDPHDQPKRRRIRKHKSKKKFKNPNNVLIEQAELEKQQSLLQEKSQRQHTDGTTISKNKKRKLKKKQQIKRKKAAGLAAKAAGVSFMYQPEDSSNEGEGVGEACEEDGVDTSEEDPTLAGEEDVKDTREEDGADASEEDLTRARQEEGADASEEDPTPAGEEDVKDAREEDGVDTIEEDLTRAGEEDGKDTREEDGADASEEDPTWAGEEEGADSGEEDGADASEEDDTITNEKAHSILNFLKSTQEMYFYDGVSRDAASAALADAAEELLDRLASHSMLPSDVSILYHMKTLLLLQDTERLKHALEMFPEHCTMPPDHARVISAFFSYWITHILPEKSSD
UniProt P98173: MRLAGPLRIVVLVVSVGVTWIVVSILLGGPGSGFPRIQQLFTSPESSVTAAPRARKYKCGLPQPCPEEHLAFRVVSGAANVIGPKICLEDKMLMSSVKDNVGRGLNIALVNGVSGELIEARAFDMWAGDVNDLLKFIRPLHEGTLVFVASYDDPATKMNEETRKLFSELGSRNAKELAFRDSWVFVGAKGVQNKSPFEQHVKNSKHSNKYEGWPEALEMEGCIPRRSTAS
UniProt Q5W0V3: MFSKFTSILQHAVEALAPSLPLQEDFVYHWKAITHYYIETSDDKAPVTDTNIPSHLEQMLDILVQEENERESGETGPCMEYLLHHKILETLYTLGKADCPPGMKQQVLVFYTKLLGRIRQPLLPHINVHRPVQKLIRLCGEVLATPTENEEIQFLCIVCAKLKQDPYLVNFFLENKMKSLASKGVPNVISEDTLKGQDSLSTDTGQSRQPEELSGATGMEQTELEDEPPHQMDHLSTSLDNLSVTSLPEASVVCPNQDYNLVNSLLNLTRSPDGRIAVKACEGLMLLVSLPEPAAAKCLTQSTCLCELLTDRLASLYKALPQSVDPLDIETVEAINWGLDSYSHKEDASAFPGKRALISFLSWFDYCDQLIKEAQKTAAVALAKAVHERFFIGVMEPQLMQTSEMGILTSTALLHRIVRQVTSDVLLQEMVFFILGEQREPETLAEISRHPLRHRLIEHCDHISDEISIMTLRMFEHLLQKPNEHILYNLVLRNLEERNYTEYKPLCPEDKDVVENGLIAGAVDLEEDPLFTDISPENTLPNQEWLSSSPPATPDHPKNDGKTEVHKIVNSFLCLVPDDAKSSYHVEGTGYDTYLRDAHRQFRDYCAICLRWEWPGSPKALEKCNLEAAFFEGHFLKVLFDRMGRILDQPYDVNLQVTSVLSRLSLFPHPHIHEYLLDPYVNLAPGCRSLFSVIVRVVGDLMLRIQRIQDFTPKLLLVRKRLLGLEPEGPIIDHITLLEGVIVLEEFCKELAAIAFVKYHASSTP
UniProt Q9NZB2: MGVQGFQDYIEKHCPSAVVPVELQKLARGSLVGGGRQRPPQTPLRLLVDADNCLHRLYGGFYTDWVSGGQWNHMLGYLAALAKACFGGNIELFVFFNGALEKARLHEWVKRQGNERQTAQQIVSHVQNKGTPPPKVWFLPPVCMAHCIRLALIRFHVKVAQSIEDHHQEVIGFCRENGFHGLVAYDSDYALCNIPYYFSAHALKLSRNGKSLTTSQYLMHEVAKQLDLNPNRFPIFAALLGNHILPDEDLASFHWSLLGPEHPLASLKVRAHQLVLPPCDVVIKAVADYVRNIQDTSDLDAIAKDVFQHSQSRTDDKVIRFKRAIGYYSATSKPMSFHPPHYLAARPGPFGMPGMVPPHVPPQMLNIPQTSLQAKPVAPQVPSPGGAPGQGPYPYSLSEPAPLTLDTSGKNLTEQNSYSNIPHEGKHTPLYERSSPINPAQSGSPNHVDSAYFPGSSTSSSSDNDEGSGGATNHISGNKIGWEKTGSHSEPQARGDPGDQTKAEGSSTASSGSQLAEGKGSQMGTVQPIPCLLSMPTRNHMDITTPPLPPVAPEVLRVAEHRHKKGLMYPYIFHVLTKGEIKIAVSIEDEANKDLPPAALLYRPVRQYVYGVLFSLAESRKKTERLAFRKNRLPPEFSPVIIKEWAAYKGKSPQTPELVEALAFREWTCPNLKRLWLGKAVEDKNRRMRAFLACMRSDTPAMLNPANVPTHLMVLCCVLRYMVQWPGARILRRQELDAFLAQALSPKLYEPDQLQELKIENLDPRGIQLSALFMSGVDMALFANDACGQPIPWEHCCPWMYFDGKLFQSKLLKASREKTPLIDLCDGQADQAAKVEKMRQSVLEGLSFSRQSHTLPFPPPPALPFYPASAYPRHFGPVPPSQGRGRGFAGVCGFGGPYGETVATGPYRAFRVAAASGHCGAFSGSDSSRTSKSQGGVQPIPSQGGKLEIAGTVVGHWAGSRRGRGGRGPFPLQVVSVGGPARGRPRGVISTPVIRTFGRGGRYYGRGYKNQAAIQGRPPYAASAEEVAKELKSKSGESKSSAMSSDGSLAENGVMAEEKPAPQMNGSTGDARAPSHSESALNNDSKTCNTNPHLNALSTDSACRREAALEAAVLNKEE
UniProt O60447: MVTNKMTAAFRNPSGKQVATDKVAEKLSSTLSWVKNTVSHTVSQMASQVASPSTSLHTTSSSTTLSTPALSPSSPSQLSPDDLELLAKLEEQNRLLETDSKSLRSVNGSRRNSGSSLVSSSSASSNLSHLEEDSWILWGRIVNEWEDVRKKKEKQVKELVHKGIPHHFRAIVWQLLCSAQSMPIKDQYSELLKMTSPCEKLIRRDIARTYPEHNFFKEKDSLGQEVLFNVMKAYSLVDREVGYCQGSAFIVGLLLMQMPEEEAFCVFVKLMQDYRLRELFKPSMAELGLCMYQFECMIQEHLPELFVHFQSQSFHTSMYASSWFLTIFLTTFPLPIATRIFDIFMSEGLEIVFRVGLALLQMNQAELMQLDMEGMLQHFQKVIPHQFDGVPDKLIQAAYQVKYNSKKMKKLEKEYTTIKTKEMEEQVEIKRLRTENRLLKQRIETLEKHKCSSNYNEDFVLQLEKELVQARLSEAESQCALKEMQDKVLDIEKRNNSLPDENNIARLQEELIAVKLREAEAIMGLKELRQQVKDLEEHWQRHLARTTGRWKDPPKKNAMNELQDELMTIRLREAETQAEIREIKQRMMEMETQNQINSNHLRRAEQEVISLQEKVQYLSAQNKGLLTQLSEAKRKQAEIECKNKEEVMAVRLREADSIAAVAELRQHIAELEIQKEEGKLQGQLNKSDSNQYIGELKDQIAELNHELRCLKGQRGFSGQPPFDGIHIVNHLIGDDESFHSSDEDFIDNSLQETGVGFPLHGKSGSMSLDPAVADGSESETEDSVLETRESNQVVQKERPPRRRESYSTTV
UniProt Q8N612: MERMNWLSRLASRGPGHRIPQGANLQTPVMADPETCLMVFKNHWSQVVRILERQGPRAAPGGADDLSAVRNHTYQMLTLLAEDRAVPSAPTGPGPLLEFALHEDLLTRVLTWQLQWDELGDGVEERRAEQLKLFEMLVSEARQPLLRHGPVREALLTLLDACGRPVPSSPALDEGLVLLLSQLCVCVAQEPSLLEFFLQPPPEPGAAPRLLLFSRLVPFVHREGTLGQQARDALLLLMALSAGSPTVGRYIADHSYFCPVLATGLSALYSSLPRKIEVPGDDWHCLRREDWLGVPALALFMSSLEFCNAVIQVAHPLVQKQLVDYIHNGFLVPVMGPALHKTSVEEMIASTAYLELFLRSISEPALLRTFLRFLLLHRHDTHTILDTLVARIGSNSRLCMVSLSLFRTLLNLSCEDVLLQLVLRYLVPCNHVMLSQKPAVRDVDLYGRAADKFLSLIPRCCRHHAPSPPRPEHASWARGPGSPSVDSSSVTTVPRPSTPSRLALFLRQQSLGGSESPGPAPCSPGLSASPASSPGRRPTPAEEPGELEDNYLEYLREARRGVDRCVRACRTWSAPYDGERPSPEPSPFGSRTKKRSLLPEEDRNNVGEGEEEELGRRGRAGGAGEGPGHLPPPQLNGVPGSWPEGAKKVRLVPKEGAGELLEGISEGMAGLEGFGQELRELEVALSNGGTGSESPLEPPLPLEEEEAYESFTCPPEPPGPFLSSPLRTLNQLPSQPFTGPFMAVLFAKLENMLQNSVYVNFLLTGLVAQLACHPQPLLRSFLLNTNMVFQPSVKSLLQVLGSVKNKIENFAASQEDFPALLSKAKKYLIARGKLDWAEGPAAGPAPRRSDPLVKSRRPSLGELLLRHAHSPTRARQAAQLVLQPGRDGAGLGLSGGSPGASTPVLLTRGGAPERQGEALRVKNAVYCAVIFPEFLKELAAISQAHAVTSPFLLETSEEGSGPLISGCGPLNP

Compound: c1cn2cc(-c3ccc4cn[nH]c4c3)nc(Nc3ccc(N4CCOCC4)cc3)c2n1 [entospletinib]
Assay: log2 fold change, soluble protein after heating vs DMSO (PISA); higher = thermal stabilisation; K562 lysate, 10 uM; active = over 0.2 and 3.5 SD of the protein, either way, in both replicates (recomputed)
Summary of the method: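 K562 pellets were dounce-homogenised in PBS pH 7.4 with 1 mM MgCl2, and the crude extract at 1 mg/mL protein was treated with 10 μM compound for 30 min. Aliquots were heated for 3 min across 48°C-58°C, pooled, and brought to 0.5% NP-40 at 4°C; soluble protein was the supernatant after 21,000xg for 90 min. Soluble protein was quantified by TMTpro 16plex LC-MS/MS with channel sums equalised, and reported as log2 fold change in thermal stability against DMSO controls, with values from duplicates.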

log2 fold change, inactive:
FAAP100 (UniProt Q0VG06) 0.012
ERVK3-1, A0A0U1RQV1 0.017
ESD (UniProt P10768) 0.034
EXOSC4 (UniProt Q9NPD3) -0.008
EXOC7 (UniProt Q9UPT5) -0.004
FAM118B (UniProt Q9BPY3) -0.005
FAM107B isoform 2 (UniProt Q9H098) -0.032
FAM133B (UniProt Q5BKY9) -0.052
FAM76B (UniProt Q5HYJ3) -0.014
F5 (UniProt P12259) 0.049
FAIM isoform 2 (UniProt Q9NVQ4) -0.036
FAM50A (UniProt Q14320) 0.03
FAM241A (UniProt Q8N8J7) -0.08
ERLEC1 (UniProt Q96DZ1) 0
EXOSC9 (UniProt Q06265) 0.021
FAM78A (UniProt Q5JUQ0) 0.028
EXTL2 (UniProt Q9UBQ6) -0.036
ETFB (UniProt P38117) 0.01
ERP44 (UniProt Q9BS26) -0.009
FAM111A (UniProt Q96PZ2) 0.044
ERLIN1 (UniProt O75477) 0.023
ESPL1 (UniProt Q14674) -0.066
ERICH1 (UniProt Q86X53) -0.035
EXOSC1 (UniProt Q9Y3B2) -0.004
FAM3A (UniProt P98173) -0.078
ERP29 (UniProt P30040) -0.004
FAM3C (UniProt Q92520) -0.004
ERMP1 (UniProt Q7Z2K6) -0.057
FAM160B1 (UniProt Q5W0V3) 0.039
FAH (UniProt P16930) -0.008
FAM120A isoform 6 (UniProt Q9NZB2) 0.012
ETHE1 (UniProt O95571) -0.02
EVI5 isoform 2 (UniProt O60447) 0.048
ETNK1 (UniProt Q9HBU6) 0.011
EXOC5 (UniProt O00471) 0.025
FAM160A2 isoform 2 (UniProt Q8N612) -0.009
FAHD2B (UniProt Q6P2I3) -0.108
FAF1 (UniProt Q9UNN5) -0.002

Pulled one by one from the entries so far, 2 records:
log2 fold change, inactive:
ERLIN1 (UniProt O75477) 0.023
EXOSC4 (UniProt Q9NPD3) -0.008
